The other results are listed elsewhere or left out.
Legend:
Test in all cases: log2 fold change, soluble protein after heating vs DMSO (PISA); higher = thermal stabilisation; K562 cells, 10 uM, 30 min; active = over 0.2 and 3.5 SD of the protein, either way, in both replicates (recomputed)
erlotinib = compound: C#Cc1cccc(Nc2ncnc3cc(OCCOC)c(OCCOC)cc23)c1 [erlotinib]
Outline: (§1)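 Thermal stability values are relative to control samples and come from duplicates. They are expressed as log2 fold changes. For measurement, K562 cells (2×10^6 cells/mL) received 10 μM compound for 30 min, and aliquots were heated for 3 min over 48°C-58°C, pooled, and extracted at 4°C in PBS with 0.5% NP-40. Soluble protein, the supernatant after 21,000xg for 90 min, was quantified by TMTpro 16plex LC-MS/MS with equalised channel sums.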

Sequences of proteins named here, by UniProt entry; tags and fusion partners are left off. A change or cut given only in a name is not applied to a line headed by its entry.
UniProt O75521: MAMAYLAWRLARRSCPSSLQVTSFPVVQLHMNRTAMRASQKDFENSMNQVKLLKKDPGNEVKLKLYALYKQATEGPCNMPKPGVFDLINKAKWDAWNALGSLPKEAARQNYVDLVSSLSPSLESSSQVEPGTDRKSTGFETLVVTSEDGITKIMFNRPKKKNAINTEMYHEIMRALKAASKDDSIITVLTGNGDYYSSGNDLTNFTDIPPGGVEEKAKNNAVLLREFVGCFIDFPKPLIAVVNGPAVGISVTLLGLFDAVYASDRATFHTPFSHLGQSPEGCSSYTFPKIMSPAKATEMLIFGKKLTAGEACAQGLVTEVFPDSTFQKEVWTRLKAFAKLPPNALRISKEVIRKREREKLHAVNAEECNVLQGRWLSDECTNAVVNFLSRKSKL
UniProt P30084: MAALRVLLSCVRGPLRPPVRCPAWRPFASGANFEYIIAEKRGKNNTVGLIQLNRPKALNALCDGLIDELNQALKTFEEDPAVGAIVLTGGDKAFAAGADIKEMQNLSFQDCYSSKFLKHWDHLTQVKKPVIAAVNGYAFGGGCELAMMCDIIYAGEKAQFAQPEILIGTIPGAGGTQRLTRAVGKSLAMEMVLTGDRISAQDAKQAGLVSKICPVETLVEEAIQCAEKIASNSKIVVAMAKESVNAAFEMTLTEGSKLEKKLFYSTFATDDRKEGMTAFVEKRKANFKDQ
UniProt Q92785, whole entry, looked up: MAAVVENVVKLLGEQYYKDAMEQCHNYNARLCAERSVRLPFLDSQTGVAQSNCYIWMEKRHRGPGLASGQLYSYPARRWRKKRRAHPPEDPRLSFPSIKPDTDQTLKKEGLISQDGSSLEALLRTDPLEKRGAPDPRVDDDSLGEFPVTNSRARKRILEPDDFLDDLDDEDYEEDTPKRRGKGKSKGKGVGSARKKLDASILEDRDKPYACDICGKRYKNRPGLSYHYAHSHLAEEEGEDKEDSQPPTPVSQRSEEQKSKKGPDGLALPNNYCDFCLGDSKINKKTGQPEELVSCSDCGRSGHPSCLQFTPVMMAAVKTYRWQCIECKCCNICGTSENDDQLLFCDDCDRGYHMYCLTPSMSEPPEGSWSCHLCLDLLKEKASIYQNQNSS
UniProt P23919: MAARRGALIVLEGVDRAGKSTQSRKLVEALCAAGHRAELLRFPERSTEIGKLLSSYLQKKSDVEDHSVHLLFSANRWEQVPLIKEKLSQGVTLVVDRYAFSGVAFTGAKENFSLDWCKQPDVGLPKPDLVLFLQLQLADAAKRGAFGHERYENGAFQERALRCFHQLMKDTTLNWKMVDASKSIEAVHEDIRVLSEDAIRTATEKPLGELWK
UniProt O00115: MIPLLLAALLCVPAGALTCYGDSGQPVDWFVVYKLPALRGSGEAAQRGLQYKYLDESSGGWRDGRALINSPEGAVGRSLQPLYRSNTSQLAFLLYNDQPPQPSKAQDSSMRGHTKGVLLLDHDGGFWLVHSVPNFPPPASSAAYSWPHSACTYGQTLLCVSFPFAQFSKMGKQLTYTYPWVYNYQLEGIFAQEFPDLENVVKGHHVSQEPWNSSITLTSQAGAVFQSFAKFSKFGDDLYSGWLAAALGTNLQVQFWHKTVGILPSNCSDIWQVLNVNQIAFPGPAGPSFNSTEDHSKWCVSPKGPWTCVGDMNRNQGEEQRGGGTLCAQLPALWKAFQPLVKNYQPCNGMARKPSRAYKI
UniProt Q9NY33: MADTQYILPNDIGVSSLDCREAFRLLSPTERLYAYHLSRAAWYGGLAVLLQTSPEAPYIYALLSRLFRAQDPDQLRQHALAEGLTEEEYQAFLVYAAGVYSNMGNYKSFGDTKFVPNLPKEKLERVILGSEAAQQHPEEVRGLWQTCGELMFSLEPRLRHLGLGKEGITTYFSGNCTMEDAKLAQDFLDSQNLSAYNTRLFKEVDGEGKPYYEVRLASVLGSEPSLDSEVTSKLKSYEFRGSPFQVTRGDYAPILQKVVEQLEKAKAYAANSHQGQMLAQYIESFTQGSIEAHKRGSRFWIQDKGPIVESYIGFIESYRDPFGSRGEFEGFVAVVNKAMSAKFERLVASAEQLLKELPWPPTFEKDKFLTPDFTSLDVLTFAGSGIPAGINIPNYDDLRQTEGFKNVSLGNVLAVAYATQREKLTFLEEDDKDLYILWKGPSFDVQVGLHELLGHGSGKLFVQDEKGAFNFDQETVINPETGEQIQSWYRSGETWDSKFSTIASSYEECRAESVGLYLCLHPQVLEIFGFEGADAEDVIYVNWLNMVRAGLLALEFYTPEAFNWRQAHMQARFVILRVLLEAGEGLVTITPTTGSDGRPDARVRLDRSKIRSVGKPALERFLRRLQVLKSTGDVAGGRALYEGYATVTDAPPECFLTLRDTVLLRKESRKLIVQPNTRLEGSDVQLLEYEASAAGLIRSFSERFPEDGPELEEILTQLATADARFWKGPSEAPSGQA
UniProt O77932: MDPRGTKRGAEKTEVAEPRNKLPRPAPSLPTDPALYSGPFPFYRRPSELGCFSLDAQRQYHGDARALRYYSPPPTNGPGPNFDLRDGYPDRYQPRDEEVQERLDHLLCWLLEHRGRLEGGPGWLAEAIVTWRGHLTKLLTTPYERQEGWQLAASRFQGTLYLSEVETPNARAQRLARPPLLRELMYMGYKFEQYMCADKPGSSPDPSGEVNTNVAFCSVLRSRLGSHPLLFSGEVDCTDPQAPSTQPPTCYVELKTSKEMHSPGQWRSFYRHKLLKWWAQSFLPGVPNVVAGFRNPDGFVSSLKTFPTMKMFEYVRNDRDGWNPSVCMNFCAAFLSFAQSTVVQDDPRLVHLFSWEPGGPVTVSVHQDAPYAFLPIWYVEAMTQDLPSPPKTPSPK
UniProt Q96F86: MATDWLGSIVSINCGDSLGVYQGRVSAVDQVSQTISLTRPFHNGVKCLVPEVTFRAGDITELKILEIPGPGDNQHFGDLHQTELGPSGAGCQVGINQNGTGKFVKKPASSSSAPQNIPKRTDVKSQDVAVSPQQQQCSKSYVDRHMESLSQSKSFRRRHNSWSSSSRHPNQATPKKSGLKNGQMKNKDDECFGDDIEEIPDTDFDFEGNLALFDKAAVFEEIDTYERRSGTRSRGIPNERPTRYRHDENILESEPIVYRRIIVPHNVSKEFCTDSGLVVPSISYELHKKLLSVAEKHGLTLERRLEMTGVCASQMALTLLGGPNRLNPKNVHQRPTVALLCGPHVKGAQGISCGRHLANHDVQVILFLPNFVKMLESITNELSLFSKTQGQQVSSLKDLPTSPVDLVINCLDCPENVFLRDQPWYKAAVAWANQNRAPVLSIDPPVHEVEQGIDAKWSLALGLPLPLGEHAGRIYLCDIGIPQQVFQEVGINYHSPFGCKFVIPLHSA
UniProt Q96EV8: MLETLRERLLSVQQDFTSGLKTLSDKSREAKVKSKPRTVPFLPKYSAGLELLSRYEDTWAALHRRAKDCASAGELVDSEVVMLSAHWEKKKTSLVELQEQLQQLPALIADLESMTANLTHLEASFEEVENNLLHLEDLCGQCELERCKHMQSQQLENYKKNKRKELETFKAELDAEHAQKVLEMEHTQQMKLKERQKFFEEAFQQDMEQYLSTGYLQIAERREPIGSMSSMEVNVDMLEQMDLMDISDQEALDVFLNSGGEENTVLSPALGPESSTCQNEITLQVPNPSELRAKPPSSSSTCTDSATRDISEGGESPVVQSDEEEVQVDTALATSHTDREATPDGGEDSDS
UniProt Q5QJE6: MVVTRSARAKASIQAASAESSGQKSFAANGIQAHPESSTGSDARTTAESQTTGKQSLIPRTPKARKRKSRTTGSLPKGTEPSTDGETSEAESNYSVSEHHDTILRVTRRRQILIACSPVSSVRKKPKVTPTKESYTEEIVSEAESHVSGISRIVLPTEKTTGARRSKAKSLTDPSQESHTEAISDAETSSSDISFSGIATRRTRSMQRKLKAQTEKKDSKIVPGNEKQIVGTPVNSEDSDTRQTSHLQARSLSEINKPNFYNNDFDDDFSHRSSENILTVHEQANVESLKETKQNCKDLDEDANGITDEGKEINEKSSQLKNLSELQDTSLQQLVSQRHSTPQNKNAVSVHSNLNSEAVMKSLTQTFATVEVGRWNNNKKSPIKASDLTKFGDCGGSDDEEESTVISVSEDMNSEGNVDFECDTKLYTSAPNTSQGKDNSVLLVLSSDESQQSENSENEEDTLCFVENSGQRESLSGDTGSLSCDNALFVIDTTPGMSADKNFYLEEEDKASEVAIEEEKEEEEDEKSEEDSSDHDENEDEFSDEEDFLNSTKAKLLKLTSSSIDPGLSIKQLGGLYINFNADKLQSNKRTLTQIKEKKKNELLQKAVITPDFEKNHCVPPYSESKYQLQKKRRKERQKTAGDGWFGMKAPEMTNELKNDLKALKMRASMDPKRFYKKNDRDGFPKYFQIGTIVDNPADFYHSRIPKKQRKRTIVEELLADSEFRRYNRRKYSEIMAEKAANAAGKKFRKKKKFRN
UniProt Q16610: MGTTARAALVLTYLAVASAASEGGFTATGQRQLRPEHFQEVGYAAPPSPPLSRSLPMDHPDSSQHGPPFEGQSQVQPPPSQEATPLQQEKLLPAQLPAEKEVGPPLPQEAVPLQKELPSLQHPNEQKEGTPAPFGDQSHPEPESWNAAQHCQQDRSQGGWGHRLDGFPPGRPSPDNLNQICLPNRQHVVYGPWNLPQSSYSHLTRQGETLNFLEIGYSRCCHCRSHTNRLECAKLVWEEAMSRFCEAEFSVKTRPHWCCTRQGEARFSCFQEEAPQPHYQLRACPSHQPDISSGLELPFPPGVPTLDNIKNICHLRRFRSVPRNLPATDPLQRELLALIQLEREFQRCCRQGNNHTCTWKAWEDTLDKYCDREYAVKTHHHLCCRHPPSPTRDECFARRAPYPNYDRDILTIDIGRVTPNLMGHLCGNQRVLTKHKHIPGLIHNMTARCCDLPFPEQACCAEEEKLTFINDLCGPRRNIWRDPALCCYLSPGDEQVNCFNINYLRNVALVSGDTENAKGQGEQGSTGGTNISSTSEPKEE
UniProt Q8TBM8: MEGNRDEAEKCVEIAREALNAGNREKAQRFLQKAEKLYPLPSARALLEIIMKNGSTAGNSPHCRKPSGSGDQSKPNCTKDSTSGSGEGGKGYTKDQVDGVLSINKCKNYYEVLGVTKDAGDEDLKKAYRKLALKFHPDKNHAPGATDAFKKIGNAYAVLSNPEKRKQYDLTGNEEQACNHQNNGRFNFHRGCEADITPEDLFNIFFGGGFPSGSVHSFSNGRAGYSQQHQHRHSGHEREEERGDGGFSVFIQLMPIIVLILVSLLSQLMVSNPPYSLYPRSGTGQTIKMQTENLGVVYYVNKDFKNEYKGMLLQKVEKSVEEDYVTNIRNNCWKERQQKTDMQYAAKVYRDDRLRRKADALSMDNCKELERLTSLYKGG
UniProt P51452: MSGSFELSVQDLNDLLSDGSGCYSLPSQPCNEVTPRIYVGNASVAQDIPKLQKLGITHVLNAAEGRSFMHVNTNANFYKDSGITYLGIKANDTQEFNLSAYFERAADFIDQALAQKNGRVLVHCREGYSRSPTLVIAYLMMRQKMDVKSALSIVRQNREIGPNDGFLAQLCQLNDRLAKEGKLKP
UniProt Q5SXM8: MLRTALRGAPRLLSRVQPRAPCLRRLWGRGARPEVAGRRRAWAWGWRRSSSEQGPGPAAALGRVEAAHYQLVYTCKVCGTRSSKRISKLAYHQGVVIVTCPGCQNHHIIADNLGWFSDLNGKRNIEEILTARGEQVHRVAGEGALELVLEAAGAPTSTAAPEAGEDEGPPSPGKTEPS
UniProt P42126: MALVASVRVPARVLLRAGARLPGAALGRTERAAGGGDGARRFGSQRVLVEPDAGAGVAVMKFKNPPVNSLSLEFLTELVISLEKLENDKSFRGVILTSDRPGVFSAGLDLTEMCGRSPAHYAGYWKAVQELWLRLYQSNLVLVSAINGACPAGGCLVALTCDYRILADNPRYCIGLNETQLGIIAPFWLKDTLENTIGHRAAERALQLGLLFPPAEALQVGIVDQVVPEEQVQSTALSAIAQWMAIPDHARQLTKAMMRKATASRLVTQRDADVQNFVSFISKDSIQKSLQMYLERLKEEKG
UniProt Q9BQC3: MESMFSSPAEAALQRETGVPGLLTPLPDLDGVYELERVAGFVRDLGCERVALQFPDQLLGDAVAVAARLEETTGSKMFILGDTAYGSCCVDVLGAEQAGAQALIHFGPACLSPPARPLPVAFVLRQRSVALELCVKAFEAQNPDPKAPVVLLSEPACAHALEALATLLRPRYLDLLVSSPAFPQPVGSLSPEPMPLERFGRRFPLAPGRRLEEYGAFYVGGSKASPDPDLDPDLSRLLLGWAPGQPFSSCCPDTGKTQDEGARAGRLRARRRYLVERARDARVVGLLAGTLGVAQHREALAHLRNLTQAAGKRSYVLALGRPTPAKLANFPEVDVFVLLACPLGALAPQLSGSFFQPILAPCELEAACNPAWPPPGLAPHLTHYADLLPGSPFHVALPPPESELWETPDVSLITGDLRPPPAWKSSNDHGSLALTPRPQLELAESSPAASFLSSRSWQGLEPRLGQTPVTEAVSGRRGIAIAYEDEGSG
UniProt P63167, whole entry, looked up: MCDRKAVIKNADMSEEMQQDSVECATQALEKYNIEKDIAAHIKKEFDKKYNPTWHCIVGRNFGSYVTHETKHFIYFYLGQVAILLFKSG

[1] = compound: C/C(=N\NC(=O)C1=CC(=CC=C1)S(=O)(=O)N2CCOCC2)/C3=C(C=CC(=C3)Cl)O
Outline: as §1

[2] = compound: C1=CC(=C(C=C1Cl)C2=NC3=NC=CN=C3C(=N2)NC4=CC=NC=C4)F
Outline: as §1

[3] = compound: C1=CC(=CC=C1C2=NC3=C(N2)C=C(C=C3)C(=O)N)OC4=CC=C(C=C4)Cl
Outline: as §1

[4] = compound: C1=CC2=C(C=CC(=C2)/C=C\3/C(=O)NC(=NCC4=CC=CS4)S3)N=C1
Outline: as §1

[5] = compound: C1=CC2=NC=CN=C2C=C1/C=C/3\C(=O)NC(=O)S3
Outline: as §1

[6] = compound: C1=CC=C(C=C1)C2=NC(=C(N2)C3=CC=NC=C3)C4=CC(=C(C=C4)Cl)O
Outline: as §1

[7] = compound: C1=CC=C2C(=C1)C3=NNC4=CC=CC(=C43)C2=O
Outline: as §1

[8] = compound: C1CCN(C1)C(=O)NC2=CC=CC(=C2)NC3=NC=C(C(=N3)NCCC4=CN=CN4)Br
Outline: as §1

[9] = compound: C1CN(CCC1(CC2=CC=C(C=C2)Cl)N)C3=NC=NC4=C3C=CN4
Outline: as §1

Row | Target | log2 fold change (erlotinib) | log2 fold change [1] | log2 fold change [2] | log2 fold change [3] | log2 fold change [4] | log2 fold change [5] | log2 fold change [6] | log2 fold change [7] | log2 fold change [8] | log2 fold change [9]
1 | DOCK1 (UniProt Q14185) | inactive: 0.179 | inactive: -0.093 | inactive: -0.13 | inactive: -0.143 | inactive: 0.241 | inactive: 0.034 | inactive: -0.325 | inactive: -0.07 |  | 
2 | DUSP23 (UniProt Q9BVJ7) | inactive: -0.015 | inactive: 0.064 | inactive: 0.104 | inactive: 0.001 | inactive: 0.062 | inactive: 0.031 | inactive: 0.047 | inactive: -0.049 | inactive: -0.124 | inactive: 0
3 | ECI2 (UniProt O75521) | inactive: 0.044 | inactive: 0.005 | inactive: 0.053 | inactive: -0.005 | inactive: 0.028 | inactive: 0.02 | inactive: 0.056 | inactive: 0.009 | inactive: 0.001 | inactive: 0.067
4 | EAF1 (UniProt Q96JC9) | inactive: 0.049 | inactive: -0.019 | inactive: 0.021 | inactive: 0.026 | inactive: 0.024 | inactive: 0.18 | inactive: -0.07 | inactive: 0.051 | inactive: 0.043 | inactive: 0.115
5 | ECHS1 (UniProt P30084) | inactive: -0.048 | inactive: 0.056 | inactive: 0.037 | inactive: 0.017 | inactive: -0.043 | inactive: 0.02 | inactive: 0.056 | inactive: 0.043 | inactive: -0.011 | inactive: 0.018
6 | DPF2 (UniProt Q92785) | inactive: -0.007 | inactive: -0.065 | inactive: -0.135 | inactive: 0.04 | inactive: 0.044 | inactive: 0.211 | inactive: -0.01 | inactive: -0.083 | inactive: 0.09 | inactive: 0.089
7 | DPP7 (UniProt Q9UHL4) | inactive: 0.026 | inactive: 0.026 | inactive: 0.023 | inactive: 0.027 | inactive: -0.026 | inactive: -0.008 | inactive: 0.052 | inactive: 0.02 | inactive: -0.023 | inactive: 0.039
8 | DYNC1H1 (UniProt Q14204) | inactive: -0.022 | inactive: 0.042 | inactive: 0.017 | inactive: 0.025 | inactive: 0.017 | inactive: 0.006 | inactive: 0.032 | inactive: 0.032 | inactive: 0.007 | inactive: -0.011
9 | DTYMK (UniProt P23919) | inactive: -0.007 | inactive: 0.025 | inactive: 0.013 | inactive: 0.04 | inactive: -0.027 | inactive: 0.044 | inactive: -0.017 | inactive: 0.095 | inactive: 0.015 | inactive: 0.016
10 | EDF1 (UniProt O60869) | inactive: 0.016 | inactive: 0.012 | inactive: 0.043 | inactive: -0.027 | inactive: -0.025 | inactive: -0.017 | inactive: -0.02 | inactive: 0.01 | inactive: 0.013 | inactive: 0.03
11 | DNASE2 (UniProt O00115) | inactive: -0.013 | inactive: 0.008 | inactive: 0.068 | inactive: 0.005 | inactive: 0.002 | inactive: 0.048 | inactive: -0.053 | inactive: -0.015 | inactive: -0.013 | inactive: 0.075
12 | DPP3 (UniProt Q9NY33) | inactive: 0.031 | inactive: 0.04 | inactive: 0.078 | inactive: 0.036 | inactive: 0.008 | inactive: 0.004 | inactive: 0.033 | inactive: 0.018 | inactive: 0 | inactive: 0.024
13 | DXO (UniProt O77932) | inactive: -0.106 | inactive: 0.082 | inactive: 0.001 | inactive: 0.063 | inactive: -0.13 | inactive: 0.096 | inactive: 0.097 | inactive: 0.035 | inactive: -0.034 | inactive: 0.123
14 | DSC2 (UniProt Q02487) | inactive: -0.128 | inactive: -0.039 | inactive: 0.036 | inactive: 0.092 | inactive: 0.081 | inactive: -0.047 | inactive: -0.069 | inactive: -0.073 | inactive: 0.054 | inactive: -0.039
15 | EDC3 (UniProt Q96F86) | inactive: -0.023 | inactive: 0.156 | inactive: 0.009 | inactive: 0.043 | inactive: -0.007 | inactive: -0.227 | inactive: -0.024 | inactive: -0.057 | inactive: -0.195 | active: -0.376
16 | DYNLRB1 (UniProt Q9NP97) | inactive: -0.011 | inactive: 0.008 | inactive: 0.086 | inactive: -0.032 | inactive: 0.051 | inactive: 0.084 | inactive: 0.028 | inactive: 0.052 | inactive: -0.029 | inactive: -0.016
17 | DOCK7 (UniProt Q96N67) | inactive: 0.013 | inactive: -0.004 | inactive: 0.069 | inactive: 0.125 | inactive: 0.006 | inactive: 0.012 | inactive: -0.047 | inactive: 0.074 | inactive: 0 | inactive: 0.05
18 | DNAJA3 (UniProt Q96EY1) | inactive: 0.07 | inactive: -0.015 | inactive: -0.073 | inactive: 0.086 | inactive: -0.016 | inactive: 0.088 | inactive: -0.019 | inactive: 0.075 | inactive: 0.01 | inactive: -0.024
19 | DTNBP1 (UniProt Q96EV8) | inactive: 0.016 | inactive: 0.028 | inactive: 0.038 | inactive: 0.03 | inactive: 0.028 | inactive: -0.038 | inactive: -0.043 | inactive: -0.043 | inactive: -0.009 | inactive: 0.002
20 | DNTTIP2 (UniProt Q5QJE6) | inactive: -0.111 | inactive: -0.186 | inactive: -0.242 | inactive: 0.038 | inactive: 0.005 | inactive: -0.043 | inactive: -0.069 | inactive: -0.269 | inactive: -0.004 | inactive: -0.111
21 | ECM1 isoform 4 (UniProt Q16610) | inactive: -0.003 | inactive: 0.005 | inactive: 0.07 | inactive: -0.031 | inactive: 0.022 | inactive: 0.01 | inactive: -0.026 | inactive: -0.033 | inactive: -0.045 | inactive: -0.023
22 | DNAJB14 (UniProt Q8TBM8) | inactive: 0.243 | inactive: 0.116 | inactive: -0.001 | inactive: -0.061 | inactive: -0.019 | inactive: -0.023 | inactive: 0.035 | inactive: 0 | inactive: -0.102 | inactive: 0.06
23 | DUSP3 (UniProt P51452) | inactive: 0.035 | inactive: 0.064 | inactive: 0.044 | inactive: -0.013 | inactive: -0.008 | inactive: 0.013 | inactive: 0.002 | inactive: -0.009 | inactive: -0.073 | inactive: 0.016
24 | DRAP1 isoform 2 (UniProt Q14919) | inactive: 0.012 | inactive: 0.002 | inactive: 0.007 | inactive: 0.016 | inactive: -0.023 | inactive: 0.045 | inactive: 0.03 | inactive: -0.05 | inactive: 0.019 | inactive: 0.028
25 | DNLZ (UniProt Q5SXM8) | inactive: 0.032 | inactive: 0.011 | inactive: -0.019 | inactive: -0.109 | inactive: 0.015 | inactive: 0.025 | inactive: -0.067 | inactive: -0.013 | inactive: 0.054 | inactive: 0.051
26 | ECI1 (UniProt P42126) | inactive: 0 | inactive: 0.076 | inactive: 0.032 | inactive: 0.011 | inactive: 0.104 | inactive: 0.033 | inactive: -0.053 | inactive: 0.015 | inactive: 0.005 | inactive: -0.013
27 | DPH2 (UniProt Q9BQC3) | inactive: -0.046 | inactive: 0.018 | inactive: 0.159 | inactive: 0.002 | inactive: 0.047 | inactive: 0.005 | inactive: -0.112 | inactive: -0.038 | inactive: -0.041 | inactive: -0.006
28 | DTL (UniProt Q9NZJ0) | inactive: -0.098 | inactive: 0.061 | inactive: 0.033 | inactive: -0.044 | inactive: 0.101 | inactive: 0.124 | inactive: -0.048 | inactive: -0.149 | inactive: -0.044 | inactive: 0.017
29 | DYNLL1 (UniProt P63167) | inactive: -0.013 | inactive: 0.043 | inactive: 0.019 | inactive: -0.01 | inactive: 0.024 | inactive: -0.049 | inactive: 0.055 | inactive: -0.066 | inactive: -0.034 | inactive: -0.039
30 | DNPEP (UniProt Q9ULA0) | inactive: 0.002 | inactive: -0.002 | inactive: 0.019 | inactive: 0.015 | inactive: -0.014 | inactive: 0.012 | inactive: 0.003 | inactive: -0.023 | inactive: -0.039 | inactive: 0.039

An excerpt from above, showing only log2 fold change [4].
Row,Target,log2 fold change [4]
3,ECI2 (UniProt O75521),inactive: 0.028
4,EAF1 (UniProt Q96JC9),inactive: 0.024

Exported as a markdown table: part of the list above.

| Row | Target | log2 fold change (erlotinib) | log2 fold change [1] | log2 fold change [2] | log2 fold change [3] | log2 fold change [4] | log2 fold change [5] | log2 fold change [6] | log2 fold change [7] | log2 fold change [8] | log2 fold change [9] |
| --- | --- | --- | --- | --- | --- | --- | --- | --- | --- | --- | --- |
| 4 | EAF1 (UniProt Q96JC9) | inactive: 0.049 | inactive: -0.019 | inactive: 0.021 | inactive: 0.026 | inactive: 0.024 | inactive: 0.18 | inactive: -0.07 | inactive: 0.051 | inactive: 0.043 | inactive: 0.115 |
| 12 | DPP3 (UniProt Q9NY33) | inactive: 0.031 | inactive: 0.04 | inactive: 0.078 | inactive: 0.036 | inactive: 0.008 | inactive: 0.004 | inactive: 0.033 | inactive: 0.018 | inactive: 0 | inactive: 0.024 |

From the supplement of paper PMC10849652
